# The supplement of paper PMC8728848
# The other results are listed elsewhere or left out.
# B1: SBD (Rhizopus oryzae), P07683 (protein)
# chain: ASIPSSASVQLDSYNYDGSTFSGKIYVKNIAYSKKVTVVYADGSDNWNNNGNIIAASFSGPISGSNYEYWTFSASVKGIKEFYIKYEVSGKTYYDNNNSANYQVS
# Tests used:
# Assay in all cases: glycan array binding signal (z-score within array); higher = stronger binding
# Conditions in all cases: glycan notation: IUPAC condensed, linker removed
# Fuc(a1-2)Gal = biological target: Fuc(a1-2)Gal
# Summary of the method: (§1)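 The binding signal is a Z-score computed within each array. Data were drawn from 3228 arrays in the Consortium for Functional Glycomics database, restricted to those with a known protein sequence. Scores were averaged over arrays of the same protein sequence at different concentrations or buffers, and over linkers, and negative values can be taken as non-binding.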
# Fuc(a1-2)Gal(b1-3)GalNAc = biological target: Fuc(a1-2)Gal(b1-3)GalNAc
# Summary of the method: as §1
# [1] = biological target: Fuc(a1-2)Gal(b1-3)GalNAc(a1-3)[Fuc(a1-2)]Gal(b1-4)Glc
# Summary of the method: as §1
# [2] = biological target: Fuc(a1-2)Gal(b1-3)GalNAc(a1-3)[Fuc(a1-2)]Gal(b1-4)GlcNAc
# Summary of the method: as §1
# [3] = biological target: Fuc(a1-2)Gal(b1-3)GalNAc(b1-3)Gal
# Summary of the method: as §1
# [4] = biological target: Fuc(a1-2)Gal(b1-3)GalNAc(b1-3)Gal(a1-4)Gal(b1-4)Glc
# Summary of the method: as §1
# [5] = biological target: Fuc(a1-2)Gal(b1-3)GalNAc(b1-4)[Neu5Ac(a2-3)]Gal(b1-4)Glc
# Summary of the method: as §1
# Fuc(a1-2)Gal(b1-3)GlcNAc = biological target: Fuc(a1-2)Gal(b1-3)GlcNAc
# Summary of the method: as §1
# [6] = biological target: Fuc(a1-2)Gal(b1-3)GlcNAc(b1-2)Man(a1-3)[Fuc(a1-2)Gal(b1-3)GlcNAc(b1-2)Man(a1-6)]Man(b1-4)GlcNAc(b1-4)GlcNAc
# Summary of the method: as §1
# [7] = biological target: Fuc(a1-2)Gal(b1-3)GlcNAc(b1-3)Gal(b1-4)Glc
# Summary of the method: as §1
# [8] = biological target: Fuc(a1-2)Gal(b1-3)GlcNAc(b1-3)[Fuc(a1-3)[Gal(b1-4)]GlcNAc(b1-6)]Gal(b1-4)Glc
# Summary of the method: as §1
# [9] = biological target: Fuc(a1-2)Gal(b1-3)GlcNAc(b1-3)[Gal(b1-4)[Fuc(a1-3)]GlcNAc(b1-6)]Gal(b1-4)Glc
# Summary of the method: as §1
# [10] = biological target: Fuc(a1-2)Gal(b1-3)[Fuc(a1-4)]GlcNAc
# Summary of the method: as §1
# [11] = biological target: Fuc(a1-2)Gal(b1-3)[Fuc(a1-4)]GlcNAc(b1-2)Man(a1-3)[Fuc(a1-2)Gal(b1-3)[Fuc(a1-4)]GlcNAc(b1-2)Man(a1-6)]Man(b1-4)GlcNAc(b1-4)GlcNAc
# Summary of the method: as §1
# [12] = biological target: Fuc(a1-2)Gal(b1-3)[Fuc(a1-4)]GlcNAc(b1-3)[Fuc(a1-3)[Gal(b1-4)]GlcNAc(b1-6)]Gal(b1-4)Glc
# Summary of the method: as §1
# [13] = biological target: Fuc(a1-2)Gal(b1-3)[Fuc(a1-4)]GlcNAc(b1-3)[Gal(b1-4)GlcNAc(b1-6)]Gal(b1-4)Glc
# Summary of the method: as §1
# Fuc(a1-2)Gal(b1-4)Glc = biological target: Fuc(a1-2)Gal(b1-4)Glc
# Summary of the method: as §1
# Fuc(a1-2)Gal(b1-4)Glc6S = biological target: Fuc(a1-2)Gal(b1-4)Glc6S
# Summary of the method: as §1
# Fuc(a1-2)Gal(b1-4)GlcNAc = biological target: Fuc(a1-2)Gal(b1-4)GlcNAc
# Summary of the method: as §1
# [14] = biological target: Fuc(a1-2)Gal(b1-4)GlcNAc(b1-2)Man(a1-3)[Fuc(a1-2)Gal(b1-4)GlcNAc(b1-2)Man(a1-6)]Man(b1-4)GlcNAc(b1-4)GlcNAc
# Summary of the method: as §1
# [15] = biological target: Fuc(a1-2)Gal(b1-4)GlcNAc(b1-3)Gal(b1-4)GlcNAc
# Summary of the method: as §1
# [16] = biological target: Fuc(a1-2)Gal(b1-4)GlcNAc(b1-3)Gal(b1-4)GlcNAc(b1-3)Gal(b1-4)GlcNAc
# Summary of the method: as §1
# [17] = biological target: Fuc(a1-2)Gal(b1-4)GlcNAc(b1-3)GalNAc
# Summary of the method: as §1
# [18] = biological target: Fuc(a1-2)Gal(b1-4)GlcNAc6S
# Summary of the method: as §1
# [19] = biological target: Fuc(a1-2)Gal(b1-4)[Fuc(a1-3)]GlcNAc
# Summary of the method: as §1
# [20] = biological target: Fuc(a1-2)Gal(b1-4)[Fuc(a1-3)]GlcNAc(b1-2)Man(a1-3)[Fuc(a1-2)Gal(b1-4)[Fuc(a1-3)]GlcNAc(b1-2)Man(a1-6)]Man(b1-4)GlcNAc(b1-4)GlcNAc
# Summary of the method: as §1
# [21] = biological target: Fuc(a1-2)Gal(b1-4)[Fuc(a1-3)]GlcNAc(b1-3)Gal(b1-4)[Fuc(a1-3)]GlcNAc
# Summary of the method: as §1
# [22] = biological target: Fuc(a1-2)Gal(b1-4)[Fuc(a1-3)]GlcNAc(b1-3)Gal(b1-4)[Fuc(a1-3)]GlcNAc(b1-3)Gal(b1-4)[Fuc(a1-3)]GlcNAc
# Summary of the method: as §1
# Fuc(a1-2)Gal6S(b1-4)Glc = biological target: Fuc(a1-2)Gal6S(b1-4)Glc
# Summary of the method: as §1
# [23] = biological target: Fuc(a1-2)Gal6S(b1-4)Glc6S
# Summary of the method: as §1
binder,measurement,setting,value
B1,glycan array binding signal (z-score),Fuc(a1-2)Gal,-0.246
same,glycan array binding signal (z-score),Fuc(a1-2)Gal(b1-3)GalNAc,0.019
same,glycan array binding signal (z-score),[1],-0.763
same,glycan array binding signal (z-score),[2],0.422
same,glycan array binding signal (z-score),[3],2.93
same,glycan array binding signal (z-score),[4],0.514
same,glycan array binding signal (z-score),[5],-0.151
same,glycan array binding signal (z-score),Fuc(a1-2)Gal(b1-3)GlcNAc,0.141
same,glycan array binding signal (z-score),[6],0.366
same,glycan array binding signal (z-score),[7],2.1
same,glycan array binding signal (z-score),[8],0.446
same,glycan array binding signal (z-score),[9],-0.196
same,glycan array binding signal (z-score),[10],0.008
same,glycan array binding signal (z-score),[11],1.09
same,glycan array binding signal (z-score),[12],-0.892
same,glycan array binding signal (z-score),[13],-0.553
same,glycan array binding signal (z-score),Fuc(a1-2)Gal(b1-4)Glc,-0.623
same,glycan array binding signal (z-score),Fuc(a1-2)Gal(b1-4)Glc6S,0.004
same,glycan array binding signal (z-score),Fuc(a1-2)Gal(b1-4)GlcNAc,-0.048
same,glycan array binding signal (z-score),[14],0.71
same,glycan array binding signal (z-score),[15],0.056
same,glycan array binding signal (z-score),[16],-0.154
same,glycan array binding signal (z-score),[17],0.64
same,glycan array binding signal (z-score),[18],-0.307
same,glycan array binding signal (z-score),[19],-0.216
same,glycan array binding signal (z-score),[20],0.821
same,glycan array binding signal (z-score),[21],-0.351
same,glycan array binding signal (z-score),[22],0.184
same,glycan array binding signal (z-score),Fuc(a1-2)Gal6S(b1-4)Glc,-0.065
same,glycan array binding signal (z-score),[23],-0.187

# Shown as tab-separated lines: entries from further up.
binder	measurement	setting	value
B1	glycan array binding signal (z-score)	[14]	0.71
same	glycan array binding signal (z-score)	[16]	-0.154
